Some of the results follow.
These sequences were tested against OsWRKY34 (Oryza sativa, UniProt Q0JBA9 1-250) (assay: protein-binding microarray (RPBM); PBS, 2% BSA, 51.3 ng/ul salmon testes DNA, 50 uM zinc acetate, 200 nM TF, 25 C, 1 h; high values mean tight binding). Conditions: protein: recombinant; tags: N-terminal polyhistidine and DsRed monomer fusion (pET32a); label: CyDye5-dUTP incorporated in the synthesized complementary strand; 3' TTTTT single-stranded linker to array surface; dsDNA, one strand shown.
Summary of the method: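 The binding signal for each feature is its fluorescence intensity in arbitrary units. An Axon 4000B scanner was used to read a custom Agilent array that had been made double-stranded with Cy5-dUTP primer extension, blocked with 2% BSA, incubated at 25 °C for 1 h with 200 nM protein in PBS, 2% BSA, salmon testes DNA and 50 µM zinc acetate, and washed. The protein was an N-terminal polyhistidine–DsRed transcription factor fusion from E. coli BL21-CodonPlus, purified on Ni–NTA.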

Chains of the proteins cited; added tags and fusions are not shown.
UniProt Q0JBA9, entry or part of it: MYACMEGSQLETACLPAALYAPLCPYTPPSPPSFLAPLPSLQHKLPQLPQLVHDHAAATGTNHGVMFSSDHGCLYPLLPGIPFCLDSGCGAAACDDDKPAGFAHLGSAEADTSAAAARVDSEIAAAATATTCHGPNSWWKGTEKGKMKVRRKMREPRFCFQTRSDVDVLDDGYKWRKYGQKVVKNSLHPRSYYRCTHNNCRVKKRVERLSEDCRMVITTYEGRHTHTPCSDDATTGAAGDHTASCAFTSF

Sequence | binding signal
TCACTGTCACACATGATGACCCCGCTCACATCATCACTTACGGAGTCACCTAGTGCAG | 8310 fluorescence intensity (a.u.)
TATCCAGCTAATCTCTCTCCTCATGCCATCTCTATATAAACGGAGTCACCTAGTGCAG | 8290 fluorescence intensity (a.u.)
AATGGCATATACTACTGTTTAGTACCTTCCAAGGATCATGCGGAGTCACCTAGTGCAG | 8040 fluorescence intensity (a.u.)
ACTATTTTATTTCCCATTGACAGATTATACAGTGACATGCCGGAGTCACCTAGTGCAG | 8050 fluorescence intensity (a.u.)
CTTATTCCATCTTGCACTTTCTCATTGTTGAACATGCTGACGGAGTCACCTAGTGCAG | 8500 fluorescence intensity (a.u.)
TTACACTGTTACCGTTCGTTCTTCGTTTTGTCAATCGCAACGGAGTCACCTAGTGCAG | 12300 fluorescence intensity (a.u.)
ATTGCTGCTACTTGAGGTCAAGCCCGTTCGTTCGCGCGCGCGGAGTCACCTAGTGCAG | 8050 fluorescence intensity (a.u.)
TCTGTCGCTATGTAGGATTTGTATGTGTGTCCAAATATATCGGAGTCACCTAGTGCAG | 11000 fluorescence intensity (a.u.)
TGCGTGGTGTTGCTTTTTTGGATCTGGTGTGTTAATTTGGCGGAGTCACCTAGTGCAG | 9790 fluorescence intensity (a.u.)
CATCTCTACTTCATTTCTCTCGTGTTATTGGCCTCCTCCGCGGAGTCACCTAGTGCAG | 10500 fluorescence intensity (a.u.)
GTTTAATTTTTTCACTTTATATTTTCATCAGTCTATAAAACGGAGTCACCTAGTGCAG | 9650 fluorescence intensity (a.u.)
ATATCGCTGTCCACTTCCAACCTTTCGTTCTGTATGTTAGCGGAGTCACCTAGTGCAG | 12500 fluorescence intensity (a.u.)
GGCTCTTGTACGGACCACCATTATCATTTGTTATCATTGACGGAGTCACCTAGTGCAG | 10200 fluorescence intensity (a.u.)
GTCTTGTCTTCATTGTTCTTCAGGGAGGGTTCGTCAGCCTCGGAGTCACCTAGTGCAG | 11000 fluorescence intensity (a.u.)
ACACCGCTGCCTGCATACTCCTCTGATCAATCTCTCTAGTCGGAGTCACCTAGTGCAG | 10600 fluorescence intensity (a.u.)
CCCTTTGTTACCACCAACTCATCAGCACCATATGTGGTAACGGAGTCACCTAGTGCAG | 8490 fluorescence intensity (a.u.)
GATTTTTTTTTGGCGCGCATTCCAACCAAACGCCGCCCTCCGGAGTCACCTAGTGCAG | 10100 fluorescence intensity (a.u.)
AAGAAGCGGTCCTAGTCGCCCGCCGCCGCTCGCCCACTCGCGGAGTCACCTAGTGCAG | 8600 fluorescence intensity (a.u.)
GTGTATCGCCATTTCGCCCAGCTTCCCGGCCTTCCTTGTCCGGAGTCACCTAGTGCAG | 12000 fluorescence intensity (a.u.)
CACTCCACTGCAACCGTGCAACGCTGACACTCACTTTTAACGGAGTCACCTAGTGCAG | 11800 fluorescence intensity (a.u.)
GCACCAAACCGAACCGCCGTTTCTCGCGTCTCGCCCTCTCCGGAGTCACCTAGTGCAG | 12700 fluorescence intensity (a.u.)

Sequence | binding signal
GATTTCCTTTTGGTTCTTATTGCATTTTTCTAAATTGGAGCGGAGTCACCTAGTGCAG | 8500 fluorescence intensity (a.u.)
CGTTATTAAAATTTGGCATTGCGGTTGACTTAATAGAGGGCGGAGTCACCTAGTGCAG | 8370 fluorescence intensity (a.u.)
TGTCCCCTTTTGTACTGATCCAACTCAAATGCTTTAACAACGGAGTCACCTAGTGCAG | 8940 fluorescence intensity (a.u.)
AACATGAGGCATCTTCCTTCTTGCAGGTTCATCACCTATACGGAGTCACCTAGTGCAG | 8850 fluorescence intensity (a.u.)
ATATTAATTTTACATGATTGATCTTATTTTTTTGCTATTACGGAGTCACCTAGTGCAG | 9140 fluorescence intensity (a.u.)
CCAATTGCTTACGTACGACTACTCCTCCACGCCCCAAATCCGGAGTCACCTAGTGCAG | 9670 fluorescence intensity (a.u.)
AGATGACCTGTGATGTATTTAATTTGTGTGTAATTTTTTACGGAGTCACCTAGTGCAG | 10600 fluorescence intensity (a.u.)
CATCGGAAAATAATGTGTACTCTAGTCTTGTTGGGTTTGGCGGAGTCACCTAGTGCAG | 8530 fluorescence intensity (a.u.)
ATTCAACACTTTTAAAATATTTTGATTGCGGTTTCTTTTACGGAGTCACCTAGTGCAG | 9530 fluorescence intensity (a.u.)
TGTACTGTAGGGGTGGGATTGTGATTGGAAAATGAATGAACGGAGTCACCTAGTGCAG | 18600 fluorescence intensity (a.u.)
GTTCATATTTGACTTGCGGGTTTGATCGCTTACGTTTGCGCGGAGTCACCTAGTGCAG | 8060 fluorescence intensity (a.u.)
CGTTGGCTCGATTCGCCATTAATTACTATTGCGATCTTTACGGAGTCACCTAGTGCAG | 8580 fluorescence intensity (a.u.)
TACTATCACACCACGCGTCTACGTATGATCCTACTGCTTACGGAGTCACCTAGTGCAG | 9190 fluorescence intensity (a.u.)
CATCCCTAGTCGGCGTCTTGTCATCGCCGCCCCAATCTCGCGGAGTCACCTAGTGCAG | 8260 fluorescence intensity (a.u.)
TTCTGTGCCTGCTCAAGCTCCTGTGCCTAATCCTGCCAGTCGGAGTCACCTAGTGCAG | 9200 fluorescence intensity (a.u.)
GGTATATATATTATTTTTCCTTTTAACTTTCCATCGCCAACGGAGTCACCTAGTGCAG | 8710 fluorescence intensity (a.u.)
CGTCTCCGGCCCCTCCGCCGCCGTCGACCGGTCAGATCTCCGGAGTCACCTAGTGCAG | 9030 fluorescence intensity (a.u.)
CTGCATTCTCTTCATTCACTCACTCACTCATACTCATACACGGAGTCACCTAGTGCAG | 9230 fluorescence intensity (a.u.)
ACACGCACACTTCAGCTCTCGTCGTCATACATCTGCTAGTCGGAGTCACCTAGTGCAG | 10200 fluorescence intensity (a.u.)
TCAGAGCCCATCACTCTCTCCCTTTCTCTCTGAAAACTCTCGGAGTCACCTAGTGCAG | 8080 fluorescence intensity (a.u.)
GCCACGATAGCAATGGGGCGGGCGAGAATATATAAATATTCGGAGTCACCTAGTGCAG | 8710 fluorescence intensity (a.u.)

Fetched one by one from the list above, 3 records:
Sequence | binding signal
GGTATATATATTATTTTTCCTTTTAACTTTCCATCGCCAACGGAGTCACCTAGTGCAG | 8710 fluorescence intensity (a.u.)
TACTATCACACCACGCGTCTACGTATGATCCTACTGCTTACGGAGTCACCTAGTGCAG | 9190 fluorescence intensity (a.u.)
TCAGAGCCCATCACTCTCTCCCTTTCTCTCTGAAAACTCTCGGAGTCACCTAGTGCAG | 8080 fluorescence intensity (a.u.)

Remaining list, next part:

Sequence | binding signal
ATGAGCTCCATGATATATCCATTCTCGCCTGTGCAAATCCCGGAGTCACCTAGTGCAG | 10100 fluorescence intensity (a.u.)
TTTCTTTAACCCATGGCCTCTCTCGTCGCCACCACCCGAACGGAGTCACCTAGTGCAG | 9530 fluorescence intensity (a.u.)
ATCCTCCTCGACGTCCTCACACGCCTCACCTCACCTCACCCGGAGTCACCTAGTGCAG | 8900 fluorescence intensity (a.u.)
CCTTGTCGATTTTCTTTGACCTAAACCCATCGTCTTCTCCCGGAGTCACCTAGTGCAG | 9260 fluorescence intensity (a.u.)
CTTATCCCTTTCGCACGACCGCATCTCCCGCACACGCGCACGGAGTCACCTAGTGCAG | 10400 fluorescence intensity (a.u.)
AATACTCATTGGTTGCATGCTTATATTCACTCCTTAATTTCGGAGTCACCTAGTGCAG | 11100 fluorescence intensity (a.u.)
ATCTTCCCATTGCCACCCGATGTCTTCTCAGTCTTGATTTCGGAGTCACCTAGTGCAG | 9660 fluorescence intensity (a.u.)
TTCTTTCTGCCCATCATGGGCTCTACTGTAATTCTTCTAACGGAGTCACCTAGTGCAG | 8550 fluorescence intensity (a.u.)
CGAATACATTAGTTATGGTGACATTTTTGTGCTTCTTTTACGGAGTCACCTAGTGCAG | 8110 fluorescence intensity (a.u.)
ATGCCAACACCATCATGCTAATATCAATGTTTTGTTTAATCGGAGTCACCTAGTGCAG | 8080 fluorescence intensity (a.u.)
TGGCGTCTCTATCATAGAATCGTGGATATATATATGCTACCGGAGTCACCTAGTGCAG | 8060 fluorescence intensity (a.u.)
AGTGTTGGCTGAAGTTGTGGTCTTGTGGACCATGTCGATTCGGAGTCACCTAGTGCAG | 8540 fluorescence intensity (a.u.)
TGTTTCAGTTATTTTGTTTGTTCAACTATAATGTTTCACTCGGAGTCACCTAGTGCAG | 10100 fluorescence intensity (a.u.)
AAATCAGGTCCCATAATAATATGGGTGTTTGTTTTTCGCTCGGAGTCACCTAGTGCAG | 8390 fluorescence intensity (a.u.)
AGGGAGTTTTTAGAAGGGATTGGGAGTTTAGAGGGATGATCGGAGTCACCTAGTGCAG | 8640 fluorescence intensity (a.u.)
GACTTCACTCACACGCGCACTCATATCCACGTACGATCTCCGGAGTCACCTAGTGCAG | 8740 fluorescence intensity (a.u.)
GTGTCTCTGGTTAATACTAATTGGAGAGGCCTCTCCAATTCGGAGTCACCTAGTGCAG | 8160 fluorescence intensity (a.u.)
TTGCTCTTGCTCGTAGTCGTAGGGTGTTTGGCCGTTTGACCGGAGTCACCTAGTGCAG | 9510 fluorescence intensity (a.u.)
TGGCTATCCTTATGTGCTTATTTTTTTATTGTTCCTTCAGCGGAGTCACCTAGTGCAG | 8980 fluorescence intensity (a.u.)
ATCTCCCAAAGCCTAGTGCAAATCACGTTCATTGTTTCTTCGGAGTCACCTAGTGCAG | 9350 fluorescence intensity (a.u.)
ATAACATCCCCACTTGCCCCAACCATGTCGGCGCCGCCGCCGGAGTCACCTAGTGCAG | 8280 fluorescence intensity (a.u.)

Sequence | binding signal
TCGCCGAAGCCCGTCACCATCGCGTCACCATCGCGTCCGACGGAGTCACCTAGTGCAG | 9580 fluorescence intensity (a.u.)
CACGCTTCGGAGAATTTCCGACAATACACATACTCCTACTCGGAGTCACCTAGTGCAG | 8990 fluorescence intensity (a.u.)
CTGTTCATATTCAACGTTTGACCATTCGTATTAATTGAAACGGAGTCACCTAGTGCAG | 8520 fluorescence intensity (a.u.)
GGAGCTAGGGTCCGCTTTGCAGCAGGAGGGGTGGGGCACACGGAGTCACCTAGTGCAG | 13800 fluorescence intensity (a.u.)
ATCAGCCAAACCCCATCCCTAACTCCATGGCTTATCTATGCGGAGTCACCTAGTGCAG | 8200 fluorescence intensity (a.u.)
ATTCTGTTGTTAACTCTGCCTTCAGCTGCATTTTCTTATTCGGAGTCACCTAGTGCAG | 14500 fluorescence intensity (a.u.)
TATTATTATGAATATATACAAATCCTTATCGATCAATATTCGGAGTCACCTAGTGCAG | 8330 fluorescence intensity (a.u.)
CCGTTACTGGCTCTTTCATTGTCTTCTTTCATTGACTCCTCGGAGTCACCTAGTGCAG | 11300 fluorescence intensity (a.u.)
CACCTCCGACATTTGCTCTCAAACTTAAACATTTCGCTTCCGGAGTCACCTAGTGCAG | 9060 fluorescence intensity (a.u.)
ATTTTTCCCTTGATCTACACATCTTGATCTTTTTTTTTTCCGGAGTCACCTAGTGCAG | 9920 fluorescence intensity (a.u.)
CTTAACCATCCATTCTTCGCATCTCTTATCTTTTCAAACCCGGAGTCACCTAGTGCAG | 12700 fluorescence intensity (a.u.)
GGATTCTAATTTTCCTTCTAATTGCTATGTTATCTTCCAACGGAGTCACCTAGTGCAG | 9880 fluorescence intensity (a.u.)
GTACAAACGCCTCATTATTGATGCTGCAACTTCTCCTGTTCGGAGTCACCTAGTGCAG | 9060 fluorescence intensity (a.u.)
GAGCACACATCTCTCATAGGCCGCACATGTCAAATTCTAACGGAGTCACCTAGTGCAG | 8240 fluorescence intensity (a.u.)
GATGGATGGGGTGGGGACTGGGGATGGATGGAGGCGGCGGCGGAGTCACCTAGTGCAG | 21300 fluorescence intensity (a.u.)
TTTCTTCTTCTCTTTCCATGTCCTCTTTCTCTGCTTTTTACGGAGTCACCTAGTGCAG | 11900 fluorescence intensity (a.u.)
ATTCGTTGGACTGCTGTCCTGTTTTGTTCCTTTTTTTTCCCGGAGTCACCTAGTGCAG | 8290 fluorescence intensity (a.u.)
ATGAATGGTCAAACATGTTTAAAAAAGTCAACGGCGTCAACGGAGTCACCTAGTGCAG | 15300 fluorescence intensity (a.u.)
CCACTTGATGCCATTATATCTTTTTGGGAGTGTTTAGATTCGGAGTCACCTAGTGCAG | 8270 fluorescence intensity (a.u.)
CCGCTGATGCCCACAGGTTGTCGCTGTCATGCTTTTTTTCCGGAGTCACCTAGTGCAG | 12100 fluorescence intensity (a.u.)
GCTGTTCTTGCTGATTTCAGTCTTCTTCTTCCGGTGGTCGCGGAGTCACCTAGTGCAG | 9400 fluorescence intensity (a.u.)

Reference: paper PMC7819943, “Rice protein-binding microarrays: a tool to detect cis-acting elements near promoter regions in rice”
